{"source": "patent US20050037989A1", "about": "“Inhibition of gene function by delivery of polynucleotide-based gene expression inhibitors to mammalian cells in vivo” (priority 2001, published 2005)", "key": {"[1]": {"system": "HMGCR mRNA in primary hepatocytes", "test": "HMGCR mRNA in primary hepatocytes cultured with anti-HMGCR siRNA and/or atorvastatin (qPCR)", "type": "cell-based, C57B6 mice", "settings": "10 μm atorvastatin, 24 hours", "protocol": "qPCR assays. Quantitative, real-time PCR was performed using the Bio-Rad icycler system and iCycler reagents as recommended by the manufacturer. The primers used to amplify HMGCR sequences were SEQ ID 17 and SEQ ID 31.\nTotal RNA from these cells was isolated and transcribed into cDNA using an oligo-dT primer and reverse transcriptase. Subsequently, HMGCR levels were assayed using quantitative, real-time PCR."}, "[2]": {"system": "LDL receptor mRNA in primary hepatocytes", "test": "LDL receptor mRNA in primary murine hepatocytes treated with atorvastatin and siRNA (qPCR)", "type": "cell-based, C57BL6 mice", "settings": "24 hours", "protocol": "Transfection and atorvastatin treatment of hepatocytes. […] Then 100 μl of the siRNA transfection cocktail was added to each well. Hepatocyte maintenance media was a 1:1 mixture of DMEM-F12/0.1% BSA/0.1% galactose. siRNA transfection cocktail. Each 100 μl aliquot of siRNA transfection cocktail contained 3.8 μl TransIT-TKO, 275 nM siRNA, and the remaining volume of OPTI-MEM transfection media. The 100 μl aliquots were added to cells in 1 ml of media such that the final siRNA concentration was 25 nM. RNA isolation. After 24 hours of siRNA transfection and atorvastatin treatment, cells were harvested in Tri-Reagent. […] qPCR assays. Quantitative, real-time PCR was performed using the Bio-Rad iCycler system and iCycler reagents as recommended by the manufacturer. The primers used to amplify LDLR sequences were [NT] ID 19) and [NT] ID 22). Primary hepatocytes were isolated from C57BL6 mice and plated on collagen-coated 12-well plates. After allowing them to adhere to the plates for 24 hours, one of two different procedures was followed. In the first, cells were treated with 200 nM atorvastatin in DMSO or DMSO alone for 24 hours. In the second, cells were covered with 1 ml of hepatocyte maintenance media. […]"}}, "data": [{"smiles": "CC(C)c1c(C(=O)Nc2ccccc2)c(-c2ccccc2)c(-c2ccc(F)cc2)n1CC[C@@H](O)C[C@@H](O)CC(=O)O", "note": "[atorvastatin, reference compound]", "values": [{"measurement": "HMGCR mRNA levels induced relative to vehicle-treated cells", "setting": "[1]", "value": 400, "unit": "%"}, {"measurement": "LDLR mRNA levels over a range of atorvastatin concentrations (in words)", "setting": "[2]; 0-200 nM atorvastatin with 25 nM HMGCR or GL3 siRNA, FIG. 8B", "value": "dose-dependent increase in LDLR mRNA levels"}, {"measurement": "LDL receptor mRNA levels (in words)", "setting": "[2]; 200 nM atorvastatin, FIG. 8A", "value": "marked increase in LDL receptor mRNA levels"}]}]}
